# Reference: article PMC9105235
# The chains behind the UniProt entries cited, without tags or fusion partners.
# UniProt Q5XKL5: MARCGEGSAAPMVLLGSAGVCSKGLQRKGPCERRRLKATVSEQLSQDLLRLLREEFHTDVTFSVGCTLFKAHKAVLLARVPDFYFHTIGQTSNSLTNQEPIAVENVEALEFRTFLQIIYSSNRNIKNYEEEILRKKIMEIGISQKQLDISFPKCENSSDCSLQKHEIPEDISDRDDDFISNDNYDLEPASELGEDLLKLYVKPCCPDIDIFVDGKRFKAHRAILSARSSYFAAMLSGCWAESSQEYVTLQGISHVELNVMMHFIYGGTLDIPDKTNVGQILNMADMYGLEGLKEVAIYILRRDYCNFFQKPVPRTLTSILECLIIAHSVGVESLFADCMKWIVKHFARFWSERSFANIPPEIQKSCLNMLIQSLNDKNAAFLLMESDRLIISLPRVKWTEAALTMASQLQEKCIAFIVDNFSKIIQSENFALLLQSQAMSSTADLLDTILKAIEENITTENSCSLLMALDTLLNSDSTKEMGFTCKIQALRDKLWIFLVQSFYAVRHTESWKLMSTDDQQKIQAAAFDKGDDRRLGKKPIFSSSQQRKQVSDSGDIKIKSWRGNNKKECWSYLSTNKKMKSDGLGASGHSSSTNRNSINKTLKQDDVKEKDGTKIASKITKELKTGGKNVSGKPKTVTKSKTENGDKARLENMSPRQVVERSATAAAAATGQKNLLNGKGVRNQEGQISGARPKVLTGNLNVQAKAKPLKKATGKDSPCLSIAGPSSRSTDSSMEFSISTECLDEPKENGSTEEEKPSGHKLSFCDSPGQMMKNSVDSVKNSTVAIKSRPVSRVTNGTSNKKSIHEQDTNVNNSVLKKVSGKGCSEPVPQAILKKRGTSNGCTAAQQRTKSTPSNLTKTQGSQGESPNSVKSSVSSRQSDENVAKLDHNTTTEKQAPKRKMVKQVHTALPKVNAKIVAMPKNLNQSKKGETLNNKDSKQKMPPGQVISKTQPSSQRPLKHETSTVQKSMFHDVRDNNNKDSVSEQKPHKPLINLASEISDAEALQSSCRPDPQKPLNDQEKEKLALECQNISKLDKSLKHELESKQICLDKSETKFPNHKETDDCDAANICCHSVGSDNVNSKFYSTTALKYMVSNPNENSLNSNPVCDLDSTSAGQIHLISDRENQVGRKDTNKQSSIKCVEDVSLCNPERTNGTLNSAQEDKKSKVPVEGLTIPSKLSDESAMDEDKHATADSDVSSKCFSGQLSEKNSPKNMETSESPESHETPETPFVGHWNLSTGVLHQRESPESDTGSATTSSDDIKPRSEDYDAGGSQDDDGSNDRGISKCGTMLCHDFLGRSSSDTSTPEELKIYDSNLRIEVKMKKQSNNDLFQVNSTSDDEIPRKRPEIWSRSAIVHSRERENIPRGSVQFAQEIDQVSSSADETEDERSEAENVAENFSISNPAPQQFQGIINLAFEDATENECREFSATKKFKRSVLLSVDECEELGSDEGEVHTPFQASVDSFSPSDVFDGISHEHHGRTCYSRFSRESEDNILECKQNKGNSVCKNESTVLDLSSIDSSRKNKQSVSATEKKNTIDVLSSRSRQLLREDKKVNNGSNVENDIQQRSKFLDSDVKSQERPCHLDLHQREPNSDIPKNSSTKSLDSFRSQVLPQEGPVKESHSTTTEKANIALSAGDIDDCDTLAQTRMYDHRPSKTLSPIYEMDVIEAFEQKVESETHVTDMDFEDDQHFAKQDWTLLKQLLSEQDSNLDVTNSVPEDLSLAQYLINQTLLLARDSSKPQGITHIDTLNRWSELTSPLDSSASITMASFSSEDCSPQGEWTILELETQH
# UniProt O95199: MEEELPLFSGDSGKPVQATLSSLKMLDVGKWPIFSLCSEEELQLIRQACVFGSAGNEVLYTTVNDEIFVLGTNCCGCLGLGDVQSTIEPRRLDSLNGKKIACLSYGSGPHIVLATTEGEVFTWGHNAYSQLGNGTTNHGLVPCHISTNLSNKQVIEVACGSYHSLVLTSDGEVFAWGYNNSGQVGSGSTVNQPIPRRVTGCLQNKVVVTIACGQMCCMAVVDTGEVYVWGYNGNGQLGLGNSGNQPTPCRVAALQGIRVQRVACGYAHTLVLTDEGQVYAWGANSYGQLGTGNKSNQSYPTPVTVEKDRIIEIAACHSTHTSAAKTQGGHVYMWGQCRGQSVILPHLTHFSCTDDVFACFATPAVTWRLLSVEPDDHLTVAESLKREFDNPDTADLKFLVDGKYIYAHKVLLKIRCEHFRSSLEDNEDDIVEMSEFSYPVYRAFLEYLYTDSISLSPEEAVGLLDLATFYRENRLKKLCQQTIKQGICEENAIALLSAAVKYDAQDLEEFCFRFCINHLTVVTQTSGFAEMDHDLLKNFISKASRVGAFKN
# UniProt Q6PI47: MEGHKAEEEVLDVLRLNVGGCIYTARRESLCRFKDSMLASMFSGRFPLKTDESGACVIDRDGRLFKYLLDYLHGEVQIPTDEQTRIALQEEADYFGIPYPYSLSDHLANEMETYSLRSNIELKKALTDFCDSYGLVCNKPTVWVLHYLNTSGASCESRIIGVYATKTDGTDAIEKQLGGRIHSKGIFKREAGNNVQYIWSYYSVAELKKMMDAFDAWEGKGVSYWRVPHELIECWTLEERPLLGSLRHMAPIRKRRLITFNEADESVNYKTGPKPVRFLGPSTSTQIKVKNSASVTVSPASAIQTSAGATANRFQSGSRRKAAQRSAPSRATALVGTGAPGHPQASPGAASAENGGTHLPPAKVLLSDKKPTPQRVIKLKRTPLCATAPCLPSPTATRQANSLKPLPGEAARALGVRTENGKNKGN
# UniProt Q9BSF8: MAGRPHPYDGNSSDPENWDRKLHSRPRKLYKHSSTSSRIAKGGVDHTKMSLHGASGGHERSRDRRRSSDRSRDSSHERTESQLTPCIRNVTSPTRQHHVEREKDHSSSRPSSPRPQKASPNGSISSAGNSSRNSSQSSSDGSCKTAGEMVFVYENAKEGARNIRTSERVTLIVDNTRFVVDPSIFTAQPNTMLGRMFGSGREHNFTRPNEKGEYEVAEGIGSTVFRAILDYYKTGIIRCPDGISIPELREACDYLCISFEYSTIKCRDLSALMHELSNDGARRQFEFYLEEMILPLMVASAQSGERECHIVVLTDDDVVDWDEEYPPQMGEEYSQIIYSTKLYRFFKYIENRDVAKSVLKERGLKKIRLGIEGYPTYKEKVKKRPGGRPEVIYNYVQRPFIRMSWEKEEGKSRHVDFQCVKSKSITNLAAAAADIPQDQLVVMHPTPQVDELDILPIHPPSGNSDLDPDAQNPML
# UniProt O95365: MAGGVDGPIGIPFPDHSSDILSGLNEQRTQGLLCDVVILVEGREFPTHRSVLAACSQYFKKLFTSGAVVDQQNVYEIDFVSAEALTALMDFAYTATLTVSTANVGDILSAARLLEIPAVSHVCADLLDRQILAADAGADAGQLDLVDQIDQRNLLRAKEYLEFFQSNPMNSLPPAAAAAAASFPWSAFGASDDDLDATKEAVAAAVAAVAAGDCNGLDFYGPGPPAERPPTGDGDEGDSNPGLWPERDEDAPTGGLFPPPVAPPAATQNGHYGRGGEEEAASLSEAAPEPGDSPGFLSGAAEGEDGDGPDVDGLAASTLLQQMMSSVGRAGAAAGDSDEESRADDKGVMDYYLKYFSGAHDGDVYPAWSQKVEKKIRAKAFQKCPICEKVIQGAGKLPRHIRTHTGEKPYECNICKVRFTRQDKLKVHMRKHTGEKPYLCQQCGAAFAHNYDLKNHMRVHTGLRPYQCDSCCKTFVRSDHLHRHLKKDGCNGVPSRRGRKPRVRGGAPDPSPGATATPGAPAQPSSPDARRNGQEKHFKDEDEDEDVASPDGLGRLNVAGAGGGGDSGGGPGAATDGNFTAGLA
# UniProt Q9P203: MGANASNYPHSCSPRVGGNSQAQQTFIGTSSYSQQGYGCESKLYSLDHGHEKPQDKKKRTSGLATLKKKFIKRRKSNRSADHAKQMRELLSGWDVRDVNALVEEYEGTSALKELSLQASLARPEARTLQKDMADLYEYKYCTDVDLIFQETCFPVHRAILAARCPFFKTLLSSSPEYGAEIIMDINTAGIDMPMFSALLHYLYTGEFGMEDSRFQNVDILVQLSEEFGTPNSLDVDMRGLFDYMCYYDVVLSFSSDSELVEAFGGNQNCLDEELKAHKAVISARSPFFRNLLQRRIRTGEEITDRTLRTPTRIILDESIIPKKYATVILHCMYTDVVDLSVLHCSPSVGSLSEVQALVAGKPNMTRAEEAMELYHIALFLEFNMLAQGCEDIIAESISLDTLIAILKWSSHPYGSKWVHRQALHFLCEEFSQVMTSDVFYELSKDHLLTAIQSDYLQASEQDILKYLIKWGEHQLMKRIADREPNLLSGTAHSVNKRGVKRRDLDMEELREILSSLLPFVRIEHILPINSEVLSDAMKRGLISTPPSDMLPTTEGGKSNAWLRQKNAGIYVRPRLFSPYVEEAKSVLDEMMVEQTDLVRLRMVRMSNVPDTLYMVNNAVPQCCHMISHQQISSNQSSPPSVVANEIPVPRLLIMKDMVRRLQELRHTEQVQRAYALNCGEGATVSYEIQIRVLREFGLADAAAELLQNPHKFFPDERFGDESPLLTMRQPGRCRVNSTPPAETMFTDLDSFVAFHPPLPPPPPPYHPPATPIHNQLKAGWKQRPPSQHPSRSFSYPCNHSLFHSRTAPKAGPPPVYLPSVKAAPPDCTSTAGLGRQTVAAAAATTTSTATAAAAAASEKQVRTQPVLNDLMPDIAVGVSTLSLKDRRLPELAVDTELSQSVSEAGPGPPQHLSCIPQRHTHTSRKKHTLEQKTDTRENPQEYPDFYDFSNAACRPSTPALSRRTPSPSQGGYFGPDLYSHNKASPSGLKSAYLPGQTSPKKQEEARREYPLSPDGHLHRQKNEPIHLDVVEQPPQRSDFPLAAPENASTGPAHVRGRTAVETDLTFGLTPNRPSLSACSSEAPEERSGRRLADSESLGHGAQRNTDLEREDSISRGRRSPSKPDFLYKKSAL
# UniProt Q8IY47: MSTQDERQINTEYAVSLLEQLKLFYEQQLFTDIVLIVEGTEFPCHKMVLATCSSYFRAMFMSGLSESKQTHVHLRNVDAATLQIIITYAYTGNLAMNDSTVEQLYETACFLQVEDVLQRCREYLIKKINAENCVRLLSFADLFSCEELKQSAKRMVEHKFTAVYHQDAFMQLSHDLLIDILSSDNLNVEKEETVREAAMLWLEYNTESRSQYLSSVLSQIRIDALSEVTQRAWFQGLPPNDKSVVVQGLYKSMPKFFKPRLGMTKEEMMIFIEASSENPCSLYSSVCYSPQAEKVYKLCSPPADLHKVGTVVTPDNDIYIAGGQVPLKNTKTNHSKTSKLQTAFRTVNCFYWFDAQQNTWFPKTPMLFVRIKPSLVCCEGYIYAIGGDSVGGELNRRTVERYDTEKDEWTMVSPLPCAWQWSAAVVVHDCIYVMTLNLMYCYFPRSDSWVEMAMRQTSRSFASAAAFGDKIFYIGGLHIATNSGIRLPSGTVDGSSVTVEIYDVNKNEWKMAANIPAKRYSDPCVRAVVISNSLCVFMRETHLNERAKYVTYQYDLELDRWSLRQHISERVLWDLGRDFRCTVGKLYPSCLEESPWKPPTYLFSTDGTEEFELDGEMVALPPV
# UniProt Q9Y597: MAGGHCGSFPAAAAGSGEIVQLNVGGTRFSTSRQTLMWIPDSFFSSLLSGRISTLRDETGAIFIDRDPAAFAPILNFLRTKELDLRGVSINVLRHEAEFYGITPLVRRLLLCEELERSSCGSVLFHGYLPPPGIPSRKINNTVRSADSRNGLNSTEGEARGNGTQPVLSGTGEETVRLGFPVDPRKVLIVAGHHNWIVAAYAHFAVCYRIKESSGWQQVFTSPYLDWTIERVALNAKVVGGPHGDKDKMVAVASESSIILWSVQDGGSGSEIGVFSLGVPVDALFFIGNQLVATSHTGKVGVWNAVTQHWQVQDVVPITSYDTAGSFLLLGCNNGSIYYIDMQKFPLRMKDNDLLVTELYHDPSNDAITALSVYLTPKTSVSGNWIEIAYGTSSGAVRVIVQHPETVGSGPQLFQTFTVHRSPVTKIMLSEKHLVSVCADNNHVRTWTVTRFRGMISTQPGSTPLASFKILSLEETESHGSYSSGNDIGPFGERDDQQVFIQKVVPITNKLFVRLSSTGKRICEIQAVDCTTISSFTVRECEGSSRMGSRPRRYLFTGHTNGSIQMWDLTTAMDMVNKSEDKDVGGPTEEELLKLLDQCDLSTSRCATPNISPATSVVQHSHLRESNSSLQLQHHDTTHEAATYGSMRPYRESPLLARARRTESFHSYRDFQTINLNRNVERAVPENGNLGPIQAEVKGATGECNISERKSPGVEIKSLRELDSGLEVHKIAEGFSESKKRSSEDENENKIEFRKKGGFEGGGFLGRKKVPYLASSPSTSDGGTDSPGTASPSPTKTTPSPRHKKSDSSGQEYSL
# How the values were obtained:
# PrC-CUL3-WT (human) = PrC-CUL3-WT (human) (UniProt Q13618); test: affinity purification with mass spectrometry; PrC-CUL3-WT or PrC-CUL3-∆9 precipitated with HPC4-sepharose overnight at 4 °C from lysates of tetracycline-induced Flp-In T-REx 293 cells (50 mM HEPES pH 7.5, 150 mM NaCl, 0.5% Nonidet P-40, 2 mM CaCl2); label-free LC-MS/MS, two independent experiments, empty vector as control
# PrC-CUL3-∆9 (human) = PrC-CUL3-∆9 (human) (UniProt Q13618); test: as above
Substance,binding (PrC-CUL3-WT (human)),binding (PrC-CUL3-∆9 (human))
KLHL17 (from UniProt Q6TDP4 1-642),binds,binds
BTBD8 (from UniProt Q5XKL5 1-1792),binds,binds
RCBTB2 (from UniProt O95199 1-551),binds,binds
BACH2 (from UniProt Q9BYV9 1-841),binds,binds
KLHL7 (from UniProt Q8IXQ5 1-586),binds,binds
KCTD18 (from UniProt Q6PI47 1-426),binds,binds
BTBD10 (from UniProt Q9BSF8 1-475),binds,binds
BTBD11 (from UniProt A6QL63 1-1104),binds,binds

# Other lines, results leading:
binding (PrC-CUL3-WT (human)),binding (PrC-CUL3-∆9 (human)),Substance
binds,binds,KBTBD6 (from UniProt Q86V97 1-674)
binds,binds,ZBTB7A (from UniProt O95365 1-584)
binds,binds,BTBD7 (from UniProt Q9P203 1-1132)
binds,binds,KCTD20 (from UniProt Q7Z5Y7 1-419)
binds,binds,KBTBD2 (from UniProt Q8IY47 1-623)
binds,binds,BTBD6 (from UniProt Q96KE9)
binds,binds,KCTD3 (from UniProt Q9Y597 1-815)

# No constants are given. Whether binding was seen depends on the method and setting. In cells and extracts the contact can be indirect. A yes stands for co-enrichment or nearness to the bait. Other partners may have been found.
